Data taken from the supplement of paper PMC12669032.
For some of these results: What follows is the remainder of the data, with few or none of the hits.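 The calls were made as follows: active = AUC reduced over 20% with Padj below 0.05 in at least 2 of 3 replicates; inactive = otherwise.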 The list shows a part of the results, in another mix than the full data.

Assays:
Experiment in all cases: growth AUC relative to DMSO control (median of replicates) (fraction); higher = more growth (less inhibition), active = hit call of the paper
Conditions in all cases: 20 µM; 24 h
[1] = system: Akkermansia muciniphila
Procedure, shortened: (§1)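 Gut bacterial monocultures in mGAM were treated with 20 µM compound (1% DMSO) and grown anaerobically at 37 °C in round-bottom 96-well plates from OD600 0.05. OD600 was read hourly for 24 h, with the minimum OD set to 0. Area under the growth curve was normalised to the plate median of solvent-only wells, or to row and column medians on the industrial chemical plate. Each value is the median of three biological replicates, each grown on a separate day.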

[2] = system: Bacteroides caccae
Procedure, shortened: as §1

[3] = system: Bacteroides clarus
Procedure, shortened: as §1

[4] = system: Bacteroides dorei
Procedure, shortened: as §1

[5] = system: Bacteroides stercoris
Procedure, shortened: as §1

[6] = system: Bacteroides thetaiotaomicron
Procedure, shortened: as §1

[7] = system: Bacteroides uniformis
Procedure, shortened: as §1

[8] = system: Bifidobacterium longum subsp. longum
Procedure, shortened: as §1

[9] = system: Clostridium difficile
Procedure, shortened: as §1

[10] = system: Collinsella aerofaciens
Procedure, shortened: as §1

[11] = system: Coprococcus comes
Procedure, shortened: as §1

[12] = system: Escherichia coli ED1a
Procedure, shortened: as §1

[13] = system: Escherichia coli IAI1
Procedure, shortened: as §1

[14] = system: Eubacterium rectale
Procedure, shortened: as §1

[15] = system: Fusobacterium nucleatum subsp. animalis
Procedure, shortened: as §1

[16] = system: Lactobacillus gasseri
Procedure, shortened: as §1

[17] = system: Lactobacillus paracasei
Procedure, shortened: as §1

[18] = system: Odoribacter splanchnicus
Procedure, shortened: as §1

[19] = system: Parabacteroides distasonis
Procedure, shortened: as §1

[20] = system: Parabacteroides merdae
Procedure, shortened: as §1

[21] = system: Roseburia intestinalis
Procedure, shortened: as §1

[22] = system: Streptococcus salivarius
Procedure, shortened: as §1

Measured: growth AUC

Oc1c(Cl)cc(Cl)cc1Cl
inactive: [1] 1.05 | [2] 0.981 | [3] 0.97 | [4] 1.01 | [5] 1.06 | [6] 1.01 | [7] 0.97 | [8] 0.916 | [9] 1.01 | [10] 0.983 | [11] 0.992 | [12] 0.979 | [13] 0.968 | [14] 0.999 | [15] 0.965 | [16] 0.931 | [17] 1.03 | [18] 0.992 | [19] 0.988 | [20] 0.971 | [21] 0.95 | [22] 1
